Reference: US8746242B2, “Medicament dispenser” (Glaxo Group Limited, priority 2005, dated 2014)
Some results were stated once for a whole list of compounds, not compound by compound. For at least one compound, name, drawing or mass did not settle the structure.

target: PDE4; experiment: IC50 ratio: competing with [3H]R-rolipram binding to high affinity PDE4 form over inhibiting catalytic activity of low affinity PDE4 form; assay type: biochemical; conditions: 1 nM [3H]R-rolipram binding (HPDE4) over catalytic activity with 1 μM [3H]-cAMP as substrate (LPDE4)

| SMILES | IC50 ratio (IC50 for the PDE4 catalytic form which binds rolipram with a high affinity divided by the IC50 for the form which binds rolipram with a low affinity) |
| --- | --- |
| COc1ccc([C@]2(C#N)CC[C@@H](C(=O)O)CC2)cc1OC1CCCC1 [cis 4-cyano-4-(3-cyclopentyloxy-4-methoxyphenyl)cyclohexan-1-carboxylic acid] | ≥ 0.1 |
| COC(=O)C1CC(C#N)(c2ccc(OC(F)F)c(OCC3CC3)c2)CCC1=O (stereo not drawn) [2-carbomethoxy-4-cyano-4-(3-cyclopropylmethoxy-4-difluoromethoxyphenyl)cyclohexan-1-one] | ≥ 0.1 |
| N#CC1(c2ccc(OC(F)F)c(OCC3CC3)c2)CCC(O)CC1 (stereo not drawn) [cis-[4-cyano-4-(3-cyclopropylmethoxy-4-difluoromethoxyphenyl)cyclohexan-1-ol]] | ≥ 0.1 |
